Source: patent US20250302832A1, “PYRAZINE DERIVATIVES AND USES THEREOF” (FOGHORN THERAPEUTICS INC., priority 2022, published 2025)
pIC50: −log10 of the molar value. The match of structure and compound is tentative.

Chains of the proteins cited; added tags and fusions are not shown.
UniProt P51531, whole entry: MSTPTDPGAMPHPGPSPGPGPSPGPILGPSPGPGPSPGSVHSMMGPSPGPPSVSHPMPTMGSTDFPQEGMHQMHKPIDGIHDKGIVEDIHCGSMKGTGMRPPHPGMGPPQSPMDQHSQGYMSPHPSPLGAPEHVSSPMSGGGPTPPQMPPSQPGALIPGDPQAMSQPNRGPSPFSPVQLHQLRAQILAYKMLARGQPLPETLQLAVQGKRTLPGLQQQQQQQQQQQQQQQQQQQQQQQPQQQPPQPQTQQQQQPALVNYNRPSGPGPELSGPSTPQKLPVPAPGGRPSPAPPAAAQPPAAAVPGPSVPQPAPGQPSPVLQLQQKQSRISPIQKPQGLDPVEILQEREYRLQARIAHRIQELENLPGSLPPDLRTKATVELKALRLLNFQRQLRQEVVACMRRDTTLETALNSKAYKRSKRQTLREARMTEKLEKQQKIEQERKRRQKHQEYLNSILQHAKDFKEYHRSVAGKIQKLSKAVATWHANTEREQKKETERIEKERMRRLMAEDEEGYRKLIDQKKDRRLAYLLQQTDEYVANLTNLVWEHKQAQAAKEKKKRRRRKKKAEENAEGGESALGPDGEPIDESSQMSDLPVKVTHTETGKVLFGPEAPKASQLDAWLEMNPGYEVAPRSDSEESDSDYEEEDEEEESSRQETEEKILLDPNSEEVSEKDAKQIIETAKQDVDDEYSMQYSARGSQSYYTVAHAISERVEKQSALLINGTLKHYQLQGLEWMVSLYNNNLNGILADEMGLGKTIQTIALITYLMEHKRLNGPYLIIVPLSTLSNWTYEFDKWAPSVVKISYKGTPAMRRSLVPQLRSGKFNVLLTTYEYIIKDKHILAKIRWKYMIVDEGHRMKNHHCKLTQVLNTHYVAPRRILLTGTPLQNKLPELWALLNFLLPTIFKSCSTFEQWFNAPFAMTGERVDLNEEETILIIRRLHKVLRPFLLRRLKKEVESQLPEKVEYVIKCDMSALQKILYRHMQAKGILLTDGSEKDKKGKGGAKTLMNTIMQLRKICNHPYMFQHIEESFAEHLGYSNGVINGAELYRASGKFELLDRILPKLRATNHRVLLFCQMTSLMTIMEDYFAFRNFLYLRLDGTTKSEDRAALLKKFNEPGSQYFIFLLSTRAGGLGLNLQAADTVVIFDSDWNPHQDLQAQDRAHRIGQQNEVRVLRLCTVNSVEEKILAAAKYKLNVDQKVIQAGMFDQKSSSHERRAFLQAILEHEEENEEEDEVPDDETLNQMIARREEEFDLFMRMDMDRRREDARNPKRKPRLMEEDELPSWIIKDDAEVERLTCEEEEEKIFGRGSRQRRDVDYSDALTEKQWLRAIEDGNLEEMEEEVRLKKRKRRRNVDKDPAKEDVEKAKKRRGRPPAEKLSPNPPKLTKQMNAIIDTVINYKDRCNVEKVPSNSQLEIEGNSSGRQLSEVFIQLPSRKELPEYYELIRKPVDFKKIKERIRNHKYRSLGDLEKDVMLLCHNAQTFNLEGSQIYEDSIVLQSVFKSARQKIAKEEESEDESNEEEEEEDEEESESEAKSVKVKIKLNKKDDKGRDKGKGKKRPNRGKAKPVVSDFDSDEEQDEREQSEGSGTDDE
UniProt P51532, whole entry: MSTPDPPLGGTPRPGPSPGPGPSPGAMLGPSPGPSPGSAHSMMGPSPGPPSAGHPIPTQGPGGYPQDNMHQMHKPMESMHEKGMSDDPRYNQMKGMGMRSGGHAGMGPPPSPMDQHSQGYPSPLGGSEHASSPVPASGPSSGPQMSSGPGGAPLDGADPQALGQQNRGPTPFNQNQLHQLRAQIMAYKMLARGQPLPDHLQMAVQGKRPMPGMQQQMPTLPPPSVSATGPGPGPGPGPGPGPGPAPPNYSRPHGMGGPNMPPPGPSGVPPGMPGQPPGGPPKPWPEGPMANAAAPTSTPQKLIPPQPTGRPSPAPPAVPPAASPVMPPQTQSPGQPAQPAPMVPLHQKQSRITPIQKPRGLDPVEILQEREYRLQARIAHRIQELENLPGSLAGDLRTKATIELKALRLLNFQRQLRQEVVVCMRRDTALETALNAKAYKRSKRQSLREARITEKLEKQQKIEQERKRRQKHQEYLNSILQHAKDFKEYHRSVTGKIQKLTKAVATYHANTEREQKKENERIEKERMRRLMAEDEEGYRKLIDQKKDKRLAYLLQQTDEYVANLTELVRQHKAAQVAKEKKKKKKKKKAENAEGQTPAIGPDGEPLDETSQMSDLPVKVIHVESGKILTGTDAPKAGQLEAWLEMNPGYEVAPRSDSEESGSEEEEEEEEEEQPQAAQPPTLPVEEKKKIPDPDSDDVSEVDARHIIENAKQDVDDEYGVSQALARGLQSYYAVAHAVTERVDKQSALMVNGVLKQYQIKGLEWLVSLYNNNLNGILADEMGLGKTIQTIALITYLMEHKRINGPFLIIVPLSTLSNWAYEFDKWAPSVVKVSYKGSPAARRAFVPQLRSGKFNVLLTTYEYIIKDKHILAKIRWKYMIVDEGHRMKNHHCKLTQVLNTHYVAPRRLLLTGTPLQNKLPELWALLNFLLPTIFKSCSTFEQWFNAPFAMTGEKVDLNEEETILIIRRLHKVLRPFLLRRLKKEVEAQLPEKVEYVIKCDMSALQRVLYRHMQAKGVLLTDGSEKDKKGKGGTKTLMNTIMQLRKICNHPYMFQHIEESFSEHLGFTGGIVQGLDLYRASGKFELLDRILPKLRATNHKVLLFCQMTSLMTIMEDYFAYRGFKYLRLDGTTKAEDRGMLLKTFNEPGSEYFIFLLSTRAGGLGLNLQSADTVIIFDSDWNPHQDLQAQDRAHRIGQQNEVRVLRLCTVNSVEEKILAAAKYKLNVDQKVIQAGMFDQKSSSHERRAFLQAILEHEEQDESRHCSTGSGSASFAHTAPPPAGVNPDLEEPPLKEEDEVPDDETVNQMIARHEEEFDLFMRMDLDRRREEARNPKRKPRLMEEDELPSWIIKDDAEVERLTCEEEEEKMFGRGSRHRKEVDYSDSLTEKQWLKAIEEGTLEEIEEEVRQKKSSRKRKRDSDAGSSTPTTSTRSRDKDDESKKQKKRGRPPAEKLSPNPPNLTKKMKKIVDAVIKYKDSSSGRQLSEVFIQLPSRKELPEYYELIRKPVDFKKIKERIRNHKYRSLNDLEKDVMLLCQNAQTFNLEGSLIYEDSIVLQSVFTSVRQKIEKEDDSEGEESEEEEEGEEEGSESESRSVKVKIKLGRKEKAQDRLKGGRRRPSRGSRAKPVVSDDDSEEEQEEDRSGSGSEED

Key:
HiBit-BRM fusion protein = HiBit-BRM fusion protein (Homo sapiens, UniProt P51531); assay: HiBiT-BRM cell-based degradation assay (Nano-Glo HiBiT lytic detection, 24 h)
Description: Procedure: A stable HeLa cell line expressing HiBiT-BRM was generated. On day 0, 5000 cells were seeded in 40 μL of media into each well of 384-well cell culture plates. On day 1, cells were treated with 120 nL DMSO or 120 nL of 3-fold serially DMSO-diluted compounds (10 points in duplicate with 30 μM as final top dose). Subsequently plates were incubated for 24 h in a standard tissue culture incubator and equilibrated at room temperature for 15 minutes. Nano-GB HiBiT Lytic Detection System (Promega N3050) reagent was freshly prepared and 20 ul was added to each well. Upon addition of this LgBit-containing reagent, the HiBiT and LgBiT proteins associate to form the luminescent NanoBiT luciferase. The plates were shaken for 10 minutes at room temperature and the bioluminescence read using an EnVision plate reader (PerkinElmer).
The degradation % was calculated using the following formula: % degradation=100%−100%×(Lumsample−LuMLC)/(LuMHC−LuMLC). DMSO treated cells are employed as High Control (HC) and 2 μM of a known BRM/BRG1 degrader standard treated cells are employed as Low Control (LC).

[1] = molecular target: HiBit-BRG1 fusion protein (Homo sapiens, UniProt P51532); assay: HiBiT-BRG1 cell-based degradation assay (Nano-Glo HiBiT lytic detection, 24 h)

## Cc1ncsc1-c1ccc([C@H](C)NC(=O)[C@@H]2C[C@@H](O)CN2C(=O)[C@@H](c2cc(-c3cnc(N4CCC(c5cc6nnc(-c7ccccc7O)cc6[nH]5)CC4)nc3)no2)C(C)C)cc1
HiBit-BRM fusion protein; HeLa cell line expressing HiBiT-BRM
  BRM HiBit Degradation Maximum (%): A (“A” indicates maximum degradation ≥75%)
HiBit-BRM fusion protein; read-out: BRM HiBit Degradation IC50, HeLa cell line expressing HiBiT-BRM
  pIC50: > 8.00
[1]; HeLa cell line expressing HiBit-BRG1 and LgBit
  BRG1 HiBit Degradation Maximum (%): A (“A” indicates maximum degradation ≥75%)
[1]; read-out: BRMG1 HiBit Degradation IC50, HeLa cell line expressing HiBit-BRG1 and LgBit
  pIC50: > 8.00
